Experimental data reported in article PMC7986551.
Results are given in words; binding and its absence hold for the method and conditions named. Binding seen in cells or lysates may run through a third protein. Some binding calls cover weakened binding; strength is not graded here. For some assays here: Tags and fused reporters may be left off the sequences shown. Each block holds one binder with its values, some of them ahead of it.

Chains of the proteins cited; added tags and fusions are not shown.
UniProt P17676: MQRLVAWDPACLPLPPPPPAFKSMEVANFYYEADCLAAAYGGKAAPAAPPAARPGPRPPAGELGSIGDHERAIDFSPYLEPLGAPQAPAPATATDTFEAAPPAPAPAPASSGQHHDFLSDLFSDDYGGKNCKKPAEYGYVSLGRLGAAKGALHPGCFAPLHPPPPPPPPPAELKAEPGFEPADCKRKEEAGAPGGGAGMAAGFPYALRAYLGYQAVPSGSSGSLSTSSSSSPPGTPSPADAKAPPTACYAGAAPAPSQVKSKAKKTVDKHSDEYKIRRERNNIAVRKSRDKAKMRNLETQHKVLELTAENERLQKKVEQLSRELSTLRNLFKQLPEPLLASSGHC

Tests used:
Flag-tagged C/EBPβ = Flag-tagged C/EBPβ (UniProt P17676); experiment: co-IP; anti-Flag antibody immunoprecipitates Flag-C/EBPβ from whole cell extracts of HEK293T cells co-expressing V5-ATAD2 and Flag-C/EBPβ; Protein A/G PLUS-Agarose, 4 °C overnight, 5 washes with PBS, western blot
[1] = target: endogenous C/EBPβ (human (endogenous in KYSE510)) (UniProt P17676); experiment: co-IP; endogenous proteins in KYSE510 cell lysate, immunoprecipitation with anti-C/EBPβ antibody (IgG as control); Protein A/G PLUS-Agarose, 4 °C overnight, 5 washes with PBS, western blot

binding (Flag-tagged C/EBPβ): binds
B1: V5-tagged ATAD2 (protein, UniProt Q6PL18 1-1390)
chain: MVVLRSSLELHNHSAASATGSLDLSSDFLSLEHIGRRRLRSAGAAQKKPAATTAKAGDGSSVKEVETYHRTRALRSLRKDAQNSSDSSFEKNVEITEQLANGRHFTRQLARQQADKKKEEHREDKVIPVTRSLRARNIVQSTEHLHEDNGDVEVRRSCRIRSRYSGVNQSMLFDKLITNTAEAVLQKMDDMKKMRRQRMRELEDLGVFNETEESNLNMYTRGKQKDIQRTDEETTDNQEGSVESSEEGEDQEHEDDGEDEDDEDDDDDDDDDDDDDDEDDEDEEDGEEENQKRYYLRQRKATVYYQAPLEKPRHQRKPNIFYSGPASPARPRYRLSSAGPRSPYCKRMNRRRHAIHSSDSTSSSSSEDEQHFERRRKRSRNRAINRCLPLNFRKDELKGIYKDRMKIGASLADVDPMQLDSSVRFDSVGGLSNHIAALKEMVVFPLLYPEVFEKFKIQPPRGCLFYGPPGTGKTLVARALANECSQGDKRVAFFMRKGADCLSKWVGESERQLRLLFDQAYQMRPSIIFFDEIDGLAPVRSSRQDQIHSSIVSTLLALMDGLDSRGEIVVIGATNRLDSIDPALRRPGRFDREFLFSLPDKEARKEILKIHTRDWNPKPLDTFLEELAENCVGYCGADIKSICAEAALCALRRRYPQIYTTSEKLQLDLSSINISAKDFEVAMQKMIPASQRAVTSPGQALSTVVKPLLQNTVDKILEALQRVFPHAEFRTNKTLDSDISCPLLESDLAYSDDDVPSVYENGLSQKSSHKAKDNFNFLHLNRNACYQPMSFRPRILIVGEPGFGQGSHLAPAVIHALEKFTVYTLDIPVLFGVSTTSPEETCAQVIREAKRTAPSIVYVPHIHVWWEIVGPTLKATFTTLLQNIPSFAPVLLLATSDKPHSALPEEVQELFIRDYGEIFNVQLPDKEERTKFFEDLILKQAAKPPISKKKAVLQALEVLPVAPPPEPRSLTAEEVKRLEEQEEDTFRELRIFLRNVTHRLAIDKRFRVFTKPVDPDEVPDYVTVIKQPMDLSSVISKIDLHKYLTVKDYLRDIDLICSNALEYNPDRDPGDRLIRHRACALRDTAYAIIKEELDEDFEQLCEEIQESRKKRGCSSSKYAPSYYHVMPKQNSTLVGDKRSDPEQNEKLKTPSTPVACSTPAQLKRKIRKKSNWYLGTIKKRRKISQAKDDSQNAIDHKIESDTEETQDTSVDHNETGNTGESSVEENEKQQNASESKLELRNNSNTCNIENELEDSRKTTACTELRDKIACNGDASSSQIIHISDENEGKEMCVLRMTRARRSQVEQQQLITVEKALAILSQPTPSLVVDHERLKNLLKTVVKKSQNYNIFQLENLYAVISQCIYRHRKDHDKTSLIQKMEQEVENFSCSR

binding [1]: binds
B2: endogenous ATAD2 (protein, UniProt Q6PL18 1-1390)
chain: B1 chain
